Some of the results follow. These are raw signals, not scaled to a control.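 First-pass screen: polymyxin B was added at a level that permeabilizes the Salmonella outer membrane while sparing the inner membrane. DMSO wells, with and without polymyxin B, defined maximum growth. Because plates differed from one another, each plate's data were ranked separately and the compounds with the lowest OD600 were carried forward as hits.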
System: Salmonella enterica serovar Typhimurium SL1344
Test: bacterial growth OD600 after 18 h with compound and polymyxin B; higher = more bacterial growth (less inhibition)
Settings: 50 µM, Mueller-Hinton broth

COc1ccc(OC)c(CN2CCC(n3nccc3NC(=O)C(C)(C)C)CC2)c1
bacterial growth OD600 (polymyxin B 1 µg/mL): 0.955

O=C(C1CCC1)N1CCC2(CCCN(CCCc3ccccc3)C2=O)C1 (stereo unspecified)
bacterial growth OD600 (polymyxin B 1 µg/mL): 0.778

COCc1noc(-c2ccc(NCCc3cccnc3)nc2)n1
bacterial growth OD600 (polymyxin B 1 µg/mL): 1.02

CN(Cc1cccnc1)c1ccc(C(=O)N2CCCCC2CCn2cccn2)cn1 (stereo unspecified)
bacterial growth OD600 (polymyxin B 1 µg/mL): 0.89

O[C@H]1CC[C@H](Nc2ccc(-c3nc(COc4ccccc4)no3)cn2)CC1
bacterial growth OD600 (polymyxin B 1 µg/mL): 0.79

Cc1nc(N2CCCCCCC2)ncc1C(C)NCc1cnn(C)c1C (stereo unspecified)
bacterial growth OD600 (polymyxin B 1 µg/mL): 0.1

Cn1ccnc1CN1CCN(c2ccc(-c3nc(C4CC4)no3)cn2)CC1
bacterial growth OD600 (polymyxin B 1 µg/mL): 1.09

CCOCCCNC(=O)C1CCN(c2nc(C)c3ccc(S(C)(=O)=O)cc3n2)CC1
bacterial growth OD600 (polymyxin B 0.75 µg/mL): 0.876

OCC1(Cc2ccccc2)CCCN(Cc2cnn(-c3cccc(Cl)c3)c2)C1 (stereo unspecified)
bacterial growth OD600 (polymyxin B 1 µg/mL): 0.644

CO[C@H]1[C@H](NC(=O)COc2ccccc2)c2ccccc2C12CCN(C(=O)CCC(F)(F)F)CC2
bacterial growth OD600 (polymyxin B 0.75 µg/mL): 0.673

COc1cc(CN2CCN(Cc3ccc(OC)c(C)c3C)C(CCO)C2)ccc1F (stereo unspecified)
bacterial growth OD600 (polymyxin B 1 µg/mL): 0.786

COc1ccc(NC(=O)CCC2CCCN(Cc3cccnc3)C2)cc1Cl (stereo unspecified)
bacterial growth OD600 (polymyxin B 1 µg/mL): 0.904

Cc1ccc(CN(C)Cc2nc(-c3ccccn3)no2)cc1
bacterial growth OD600 (polymyxin B 1 µg/mL): 0.884

COc1ccc(OC)c(CN2CCOc3ccc(C(O)Cc4ccccc4)cc3C2)c1 (stereo unspecified)
bacterial growth OD600 (polymyxin B 0.75 µg/mL): 0.808

COCc1ccc(C(=O)N2CCc3[nH]nc(-c4ccccc4F)c3C2)s1
bacterial growth OD600 (polymyxin B 0.75 µg/mL): 0.756

Cc1ccc(CN2CCOc3ccc(CN4CCN(c5ccc(F)cc5)CC4)cc3C2)o1
bacterial growth OD600 (polymyxin B 0.75 µg/mL): 0.845

COc1cccc(OCc2cc(C(=O)NCc3cccc(C)n3)n[nH]2)c1
bacterial growth OD600 (polymyxin B 0.75 µg/mL): 0.839

Cn1cc(CNCc2cccnc2Oc2ccccc2)c(-c2ccccc2)n1
bacterial growth OD600 (polymyxin B 1 µg/mL): 0.929

Cc1nc(N(C)C2CCCCC2)ncc1C(C)NCc1cccc(O)c1 (stereo unspecified)
bacterial growth OD600 (polymyxin B 0.75 µg/mL): 0.776

CCOC(=O)CCNC(=O)N1CCCC(CNC(=O)c2cccs2)C1 (stereo unspecified)
bacterial growth OD600 (polymyxin B 0.75 µg/mL): 0.834

O=C(Cn1cccn1)NC1CC(=O)N(CCc2cccc(Cl)c2)C1 (stereo unspecified)
bacterial growth OD600 (polymyxin B 1 µg/mL): 0.978
